Data from publication PMC8398878 (Pharmaceutics, 2021).
* marks the point of attachment. βGlc = OC[C@H]1O[C@@H](*)[C@H](O)[C@@H](O)[C@@H]1O

Assay: general procedure: Fmoc solid-phase peptide synthesis; Rink amide-MBHA resin (loading: 0.83 mol/g) for PNA5; 2-Cl-trityl resin (loading: 1.43 mol/g) for Ang (1—7); HBTU/NMM in DMF; ClHOBt/DIC in NMP for Fmoc-Ser glucoside
Conditions: whole synthesis, 280 nm

Substance	final HPLC purity
Asp-Arg-Val-Tyr-Ile-His-Pro	more than 98.5%
H-DRVYIHS(βGlc)-NH2 (SMILES CC[C@H](C)[C@H](NC(=O)[C@H](Cc1ccc(O)cc1)NC(=O)[C@@H](NC(=O)[C@H](CCCNC(=N)N)NC(=O)[C@@H](N)CC(=O)O)C(C)C)C(=O)N[C@@H](Cc1c[nH]cn1)C(=O)N[C@@H](CO[C@@H]1O[C@H](CO)[C@@H](O)[C@H](O)[C@H]1O)C(N)=O)	more than 98.5%
